In publication PMC12127386:
Results are given in words; binding and its absence hold for the method and conditions named. In cells and extracts the contact can be indirect. Some entries that bind do so weakly or less than the wild type.

Sequences of proteins named here, by UniProt entry; tags and fusion partners are left off. A change or cut given only in a name is not applied to a line headed by its entry. Residues count along the entry.
UniProt P40763: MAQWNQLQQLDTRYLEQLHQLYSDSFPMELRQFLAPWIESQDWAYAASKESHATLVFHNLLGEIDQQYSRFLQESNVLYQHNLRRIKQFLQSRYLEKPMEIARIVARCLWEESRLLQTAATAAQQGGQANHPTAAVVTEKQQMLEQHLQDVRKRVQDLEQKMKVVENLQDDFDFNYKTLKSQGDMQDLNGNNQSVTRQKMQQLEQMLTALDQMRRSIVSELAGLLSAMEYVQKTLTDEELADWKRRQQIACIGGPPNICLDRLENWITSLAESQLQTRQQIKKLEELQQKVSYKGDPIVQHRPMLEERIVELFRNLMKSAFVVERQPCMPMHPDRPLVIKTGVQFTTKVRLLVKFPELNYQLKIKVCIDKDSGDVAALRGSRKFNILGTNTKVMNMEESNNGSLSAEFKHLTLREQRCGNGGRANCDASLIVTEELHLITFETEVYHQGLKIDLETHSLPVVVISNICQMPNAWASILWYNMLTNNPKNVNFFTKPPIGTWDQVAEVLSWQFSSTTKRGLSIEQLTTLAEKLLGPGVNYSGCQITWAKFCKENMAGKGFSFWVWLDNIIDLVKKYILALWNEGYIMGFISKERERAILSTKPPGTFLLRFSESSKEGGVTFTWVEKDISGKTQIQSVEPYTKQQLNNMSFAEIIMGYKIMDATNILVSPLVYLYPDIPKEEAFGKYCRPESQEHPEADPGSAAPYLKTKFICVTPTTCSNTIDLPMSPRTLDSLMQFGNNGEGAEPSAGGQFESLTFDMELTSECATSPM
STAT3 fragment 1-321 aa: residues 1-321 of P40763
UniProt Q96H22: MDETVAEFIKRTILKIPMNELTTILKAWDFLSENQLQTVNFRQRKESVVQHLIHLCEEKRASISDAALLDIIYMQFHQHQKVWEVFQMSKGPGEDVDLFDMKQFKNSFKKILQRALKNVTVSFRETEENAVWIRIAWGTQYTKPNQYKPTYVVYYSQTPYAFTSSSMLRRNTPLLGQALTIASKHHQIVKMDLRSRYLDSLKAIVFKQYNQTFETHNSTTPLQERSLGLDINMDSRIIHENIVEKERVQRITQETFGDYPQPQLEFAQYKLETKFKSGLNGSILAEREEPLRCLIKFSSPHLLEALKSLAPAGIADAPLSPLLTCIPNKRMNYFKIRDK

Experiments:
STAT3 fragment 1-321 aa = STAT3 fragment 1-321 aa (UniProt P40763); experiment: co-IP; protein truncation assay: truncated sequences in pcDNA3.1, 293T cells transfected, immunoprecipitation of the fragments, western blotting
[1] = target: Signal transducer and activator of transcription 3 (STAT3), as in the coimmunoprecipitation of Figure 6B (UniProt P40763); experiment: co-IP; coimmunoprecipitation of CENPN and STAT3; cells, antibodies and bait not told
[2] = target: STAT3, partner of the CENPN fragments in the protein truncation assay (Figure 6D, E) (UniProt P40763); experiment: co-IP; protein truncation assay: truncated sequences in pcDNA3.1, 293T cells transfected, immunoprecipitation of the fragments, western blotting
[3] = target: Signal transducer and activator of transcription 3 (STAT3), as in the GST pull-down of Figure 6C (UniProt P40763); experiment: pull-down; GST pull-down; which protein carried GST and where the proteins came from are not told

CENPN, partner of the STAT3 fragments in the protein truncation assay (Figure 6D, E) (from UniProt Q96H22 1-339)
binding (STAT3 fragment 1-321 aa): binds

Centromere protein N (CENPN), as in the coimmunoprecipitation of Figure 6B (from UniProt Q96H22 1-339)
binding [1]: binds

CENPN fragment 186-339 aa (from UniProt Q96H22 186-339) (domain or fragment)
binding [2]: binds

Centromere protein N (CENPN), as in the GST pull-down of Figure 6C (from UniProt Q96H22 1-339)
binding [3]: binds
